These are yes or no findings as the source states them, for the method shown. In cells and extracts the contact can be indirect. Some results given as binding are weak or reduced against the parent protein; the word gives no strength. Tags and fused reporters may be left off the sequences shown.
Columns and labels:
Assay in all cases: co-IP; GFP-tagged bait pulled down with agarose GFP-traps (Chromotek) from at least 500 ug of worm nuclear extract (pooled nuclear-soluble and chromatin-bound fractions); Buffer D (20 mM HEPES pH 7.9, 150 mM KCl, 20% glycerol, 0.2 mM EDTA, 0.2% Triton X-100, protease inhibitor) for incubation and washes; endogenous PARG-1 detected by western blot; untagged wild-type worms as negative control
GFP::SYP-3 (C. elegans) = target: T1, GFP::SYP-3 (C. elegans) (UniProt O62238)
T1 sequence: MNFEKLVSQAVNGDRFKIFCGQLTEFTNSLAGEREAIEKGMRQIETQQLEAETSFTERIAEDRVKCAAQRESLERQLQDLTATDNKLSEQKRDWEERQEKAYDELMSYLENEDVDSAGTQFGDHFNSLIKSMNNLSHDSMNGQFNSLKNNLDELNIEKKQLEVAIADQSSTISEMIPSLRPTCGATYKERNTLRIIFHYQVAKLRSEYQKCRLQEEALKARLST

HTP-1::GFP (C. elegans) = target: T2, HTP-1::GFP (C. elegans) (UniProt Q20305)
T2 sequence: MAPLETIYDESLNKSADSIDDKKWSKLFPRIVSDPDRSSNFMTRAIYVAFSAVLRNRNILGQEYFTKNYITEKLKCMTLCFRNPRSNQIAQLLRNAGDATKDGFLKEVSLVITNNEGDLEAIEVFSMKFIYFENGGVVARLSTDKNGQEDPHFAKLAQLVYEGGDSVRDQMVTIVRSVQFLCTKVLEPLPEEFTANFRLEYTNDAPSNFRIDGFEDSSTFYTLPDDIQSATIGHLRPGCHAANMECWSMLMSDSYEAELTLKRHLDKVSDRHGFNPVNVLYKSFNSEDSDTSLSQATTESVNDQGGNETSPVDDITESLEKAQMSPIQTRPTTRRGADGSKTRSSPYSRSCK

HTP-3::GFP (C. elegans) = target: T3, HTP-3::GFP (C. elegans) (UniProt O01820)
T3 sequence: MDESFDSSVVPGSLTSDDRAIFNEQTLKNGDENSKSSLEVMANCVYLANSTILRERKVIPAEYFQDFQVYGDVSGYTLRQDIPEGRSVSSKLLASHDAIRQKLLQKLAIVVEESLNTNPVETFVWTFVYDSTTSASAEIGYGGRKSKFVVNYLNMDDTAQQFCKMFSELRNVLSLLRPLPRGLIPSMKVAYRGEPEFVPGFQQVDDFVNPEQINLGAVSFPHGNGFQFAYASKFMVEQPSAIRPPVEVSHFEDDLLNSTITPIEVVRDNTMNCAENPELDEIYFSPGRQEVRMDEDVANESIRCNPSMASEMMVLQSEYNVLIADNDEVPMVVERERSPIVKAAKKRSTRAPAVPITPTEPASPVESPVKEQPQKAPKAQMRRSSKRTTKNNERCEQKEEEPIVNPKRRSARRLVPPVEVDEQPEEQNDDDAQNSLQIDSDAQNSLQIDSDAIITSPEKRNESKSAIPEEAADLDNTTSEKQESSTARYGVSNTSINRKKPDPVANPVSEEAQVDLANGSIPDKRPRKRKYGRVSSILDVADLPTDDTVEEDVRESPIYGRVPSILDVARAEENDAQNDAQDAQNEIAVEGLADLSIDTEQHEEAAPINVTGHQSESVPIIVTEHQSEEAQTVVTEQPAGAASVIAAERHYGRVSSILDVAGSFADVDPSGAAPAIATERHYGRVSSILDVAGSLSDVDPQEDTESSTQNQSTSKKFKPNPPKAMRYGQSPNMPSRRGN

MRE-11::GFP (C. elegans) = target: T4, MRE-11::GFP (C. elegans) (UniProt Q23255)
T4 sequence: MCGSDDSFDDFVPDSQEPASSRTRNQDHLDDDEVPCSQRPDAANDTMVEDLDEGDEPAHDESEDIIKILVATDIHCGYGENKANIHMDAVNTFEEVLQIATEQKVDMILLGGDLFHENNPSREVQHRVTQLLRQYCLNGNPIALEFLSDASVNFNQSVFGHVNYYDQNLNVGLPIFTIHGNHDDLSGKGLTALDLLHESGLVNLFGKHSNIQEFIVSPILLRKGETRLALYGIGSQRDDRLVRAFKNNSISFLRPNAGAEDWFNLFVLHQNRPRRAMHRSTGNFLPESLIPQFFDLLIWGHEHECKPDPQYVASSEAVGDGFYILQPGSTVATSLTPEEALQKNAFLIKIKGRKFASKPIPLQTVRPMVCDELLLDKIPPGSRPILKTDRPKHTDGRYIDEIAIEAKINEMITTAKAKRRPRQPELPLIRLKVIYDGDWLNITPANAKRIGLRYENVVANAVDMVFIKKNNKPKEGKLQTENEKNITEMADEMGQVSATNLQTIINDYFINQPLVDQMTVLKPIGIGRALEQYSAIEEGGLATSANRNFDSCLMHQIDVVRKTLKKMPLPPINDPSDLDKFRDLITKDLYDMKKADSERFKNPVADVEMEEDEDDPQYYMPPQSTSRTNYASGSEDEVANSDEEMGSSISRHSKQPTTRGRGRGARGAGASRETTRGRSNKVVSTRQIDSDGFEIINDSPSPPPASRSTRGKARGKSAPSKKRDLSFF

REC-8::GFP (C. elegans) = target: T5, REC-8::GFP (C. elegans) (UniProt Q9XUB3)
T5 sequence: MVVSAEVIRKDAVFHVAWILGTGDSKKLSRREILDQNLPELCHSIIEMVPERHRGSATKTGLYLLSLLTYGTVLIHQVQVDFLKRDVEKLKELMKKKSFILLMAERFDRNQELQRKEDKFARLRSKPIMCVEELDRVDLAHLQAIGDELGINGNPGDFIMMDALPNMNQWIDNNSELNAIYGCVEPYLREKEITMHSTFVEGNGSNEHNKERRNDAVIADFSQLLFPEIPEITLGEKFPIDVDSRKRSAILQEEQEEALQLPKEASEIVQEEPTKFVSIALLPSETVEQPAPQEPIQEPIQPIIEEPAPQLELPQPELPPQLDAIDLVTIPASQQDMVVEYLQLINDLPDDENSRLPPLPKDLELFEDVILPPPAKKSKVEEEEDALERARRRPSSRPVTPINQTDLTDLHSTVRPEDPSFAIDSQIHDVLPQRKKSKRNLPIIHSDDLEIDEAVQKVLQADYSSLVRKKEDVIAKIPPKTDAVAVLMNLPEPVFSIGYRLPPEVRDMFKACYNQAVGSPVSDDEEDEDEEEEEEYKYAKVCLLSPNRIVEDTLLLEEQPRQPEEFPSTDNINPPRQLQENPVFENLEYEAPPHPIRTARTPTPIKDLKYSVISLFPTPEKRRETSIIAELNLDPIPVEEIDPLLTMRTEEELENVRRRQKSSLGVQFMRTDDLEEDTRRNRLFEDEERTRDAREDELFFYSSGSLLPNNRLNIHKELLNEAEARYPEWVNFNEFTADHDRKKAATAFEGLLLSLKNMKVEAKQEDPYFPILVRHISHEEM

Measured: binding

B1: PARG-1 (poly(ADP-ribose) glycohydrolase), endogenous (protein, UniProt Q867X0 1-781)
chain: MSKKFIELGDPVTQDEKDYEDYVGVGFAHQVPTMKRRKLTEHGNTTESKEDPEEPKSRDVFVSSQSSDESQEDSAENPEIAKEVSENCENLTETLKISNIESLDNVTERSEHTLDNHKSTEPMEEDVNNKSNIDVAINSDEDDELVLEENNKEMRDGEQVQQDLFADDQELIEYPGIMKDTTTQLDITDSEVETAQKMEMIEETEADSTFVGEDSKNQRQSGTTSDEVDADSQINLATKTVRTSSSSFLSTVSTCEAPAKGRARMYQKELEKHVIAFTEGNLTLQPDLNKVDPDRNYRYCTIPNFPASQGKLREDNRYGPKIVLPQRWREFDSRGRRRDSYFYFKRKLDGYLKCYKTTGYFMFVGLLHNMWEFDPDITYKLPALEMYYKEMSELVGREEVLEKFARVARIAKTAEDILPERIYRLVGDVESATLSHKQCAALVARMFFARPDSPFSFCRILSSDKSICVEKLKFLFTYFDKMSMDPPDGAVSFRLTKMDKDTFNEEWKDKKLRSLPEVEFFDEMLIEDTALCTQVDFANEHLGGGVLNHGSVQEEIRFLMCPEMMVGMLLCEKMKQLEAISIVGAYVFSSYTGYGHTLKWAELQPNHSRQNTNEFRDRFGRLRVETIAIDAILFKGSKLDCQTEQLNKANIIREMKKASIGFMSQGPKFTNIPIVTGWWGCGAFNGDKPLKFIIQVIAAGVADRPLHFCSFGEPELAAKCKKIIERMKQKDVTLGMLFSMINNTGLPHKHFEFYVFDRISTYLSSSEDVESSKSSPSVSRA
binds: all assays above

From article PMC7519143
